Results are given in words; binding and its absence hold for the method and conditions named. Some entries that bind do so weakly or less than the wild type.
Target: CH25H bait of the yeast two-hybrid assay (pBT3-STE-CH25H) (chicken)
Test: two-hybrid; split-ubiquitin vectors: bait pBT3-STE-CH25H, prey pPR3-N-CHMP4B, co-transformed into yeast strain NMY51; ten-fold serial dilutions on SD lacking Leu and Trp and on SD lacking Ade, His, Leu and Trp with 30 mm 3AT; 5 d

B1: CHMP4B prey of the yeast two-hybrid assay (pPR3-N-CHMP4B) (protein, UniProt Q5ZHP5 1-227)
chain: MSGILGKLFGAGAGGKGAGKGPSPQEAIQRLRDTEEMLSKKQEFLEKKIEQELAAARKHGTKNKRAALQALKRKKRYEKQLAQIDGTLSTIEFQREALENANTNTEVLKNMGFAAKAMKAAHDNMDIDKVDELMQDIAEQQELADEISTAISKPVGFGEEFDEDELMAELEELEQEELDKNLLEISGPETVPLPNVPSISIPSKPAKKKEEEEDDDMKELEAWAGNM
B1 was tested, and the binding was “binds”.
